Patent US5853742A, “Cosmetic compositions containing lactate dehydrogenase inhibitors” (priority 1997, dated 1998)
At least one compound was matched to its structure with a doubt left.

Legend:
[1] = test system: Fibroblast Lactate Dehydrogenase; test: Lactate dehydrogenase (LDH) inhibition, fibroblast lysate; type: biochemical, human; conditions: for LDH inhibition (in words): summary of Tables 1 and 2 (keratinocyte and fibroblast LDH)
Method: All reagents were purchased from Sigma Chemical Co., St. Louis, Mo, USA. Sigma procedure No. 500 was modified for our purposes. One mL of pyruvate substrate (Sigma […]-1, pH=7.5) was added to a vial containing 1 mg NADH (Sigma 340-101). In a 96-well plate, the following components were added to each test well: 10 μl pyruvate/NADH mixture, and 10 μl cell lysate. For preparation of cell lysates, neonatal human keratinocytes or fibroblasts (Clonetic Corp., San Diego, Calif.) were cultured in tissue culture plates (Corning, USA). Cells were scraped in PBS (pH=7.4) and this solution was used as a source of L-lactate dehydrogenase. If such cell lysate was not available, a commercial preparation of L-lactic dehydrogenase (E.C.1.1.1.27), Sigma L9889, from porcine heart could be used in place of the cell lysate. For positive control, the inhibitor was replaced with 10 μl of PBS. For blank determination, the lysate or enzyme was replaced with […]. After mixing, the plate was incubated for 30 minutes at 37° C. Then 20 μl of color reagent (Sigma 505-2) was added to each well. After 20 minutes at room temperature, 150 μI of 0.4N NaOH was added, and the plate was read for absorbance at 490 nm in a Dynatech MR 7000 Microplate Reader. To calculate % inhibition, the control activity (CA) was first determined by subtracting the absorbance of the positive control from the blank, Then the activity in the presence of the inhibitor (IA) was calculated by subtracting the appropriate absorbance from the blank. %/, Inhibition was then calculated as: ((CA-IA)/CA)* 100%/.

[2] = test system: Keratinocyte Lactate Dehydrogenase; test: Lactate dehydrogenase (LDH) inhibition, keratinocyte lysate; type: biochemical, human
[3] = test system: Normal human epidermal keratinocytes (NHEK); test: Keratinocyte proliferation (DNA content, fluorometric); type: cell-based

CC(S)C(=O)O (stereo not shown) [Thio-Lactate, Thiolactate]
% Inhibition ([1]; 0.625 mM): 7% | % Inhibition ([1]; 1.25 mM): 8% | % Inhibition ([1]; 2.5 mM): 11% | % Inhibition ([1]; 5 mM): 11% | LDH inhibition (in words) [1]: effective inhibitors of LDH | % Inhibition ([2]; 0.625 mM): 4% | % Inhibition ([2]; 1.25 mM): 8% | % Inhibition ([2]; 2.5 mM): 8% | % Inhibition ([2]; 5 mM): 14%

NC(=O)C(=O)O [Oxamate]
% Inhibition ([1]; 0.625 mM): 76% | % Inhibition ([1]; 1.25 mM): 87% | % Inhibition ([1]; 2.5 mM): 92% | % Inhibition ([1]; 5 mM): 96% | LDH inhibition (in words) [1]: effective inhibitors of LDH | Stimulation of keratinocyte proliferation (in words) [3]: did not stimulate keratinocyte proliferation at the concentrations tested | % Inhibition ([2]; 0.625 mM): 71% | % Inhibition ([2]; 1.25 mM): 84% | % Inhibition ([2]; 2.5 mM): 93% | % Inhibition ([2]; 5 mM): 97%
